No constants are given. Whether binding was seen depends on the method and setting. In cells and extracts the contact can be indirect. Binding can be weak; no strength is given. Tags and fused reporters may be left off the sequences shown.
B1: SLC9A6, GLuc1 fusion (protein, UniProt Q92581 1-701)
chain: MARRGWRRAPLRRGVGSSPRARRLMRPLWLLLAVGVFDWAGASDGGGGEARAMDEEIVSEKQAEESHRQDSANLLIFILLLTLTILTIWLFKHRRARFLHETGLAMIYGLLVGLVLRYGIHVPSDVNNVTLSCEVQSSPTTLLVNVSGKFYEYMLKGEISSHELNNVQDNEMLRKVTFDPEVFFNILLPPIIFYAGYSLKRRHFFRNLGSILAYAFLGTAISCFVIGSIMYGCVTLMKVTGQLAGDFYFTDCLLFGAIVSATDPVTVLAIFHELQVDVELYALLFGESVLNDAVAIVLSSSIVAYQPAGDNSHTFDVTAMFKSIGIFLGIFSGSFAMGAATGVVTALVTKFTKLREFQLLETGLFFLMSWSTFLLAEAWGFTGVVAVLFCGITQAHYTYNNLSTESQHRTKQLFELLNFLAENFIFSYMGLTLFTFQNHVFNPTFVVGAFVAIFLGRAANIYPLSLLLNLGRRSKIGSNFQHMMMFAGLRGAMAFALAIRDTATYARQMMFSTTLLIVFFTVWVFGGGTTAMLSCLHIRVGVDSDQEHLGVPENERRTTKAESAWLFRMWYNFDHNYLKPLLTHSGPPLTTTLPACCGPIARCLTSPQAYENQEQLKDDDSDLILNDGDISLTYGDSTVNTEPATSSAPRRFMGNSSEDALDRELAFGDHELVIRGTRLVLPMDDSEPPLNLLDNTRHGPA
B2: CHMP1A, GLuc1 fusion (protein, UniProt Q9HD42 1-196)
chain: MDDTLFQLKFTAKQLEKLAKKAEKDSKAEQAKVKKALLQKNVECARVYAENAIRKKNEGVNWLRMASRVDAVASKVQTAVTMKGVTKNMAQVTKALDKALSTMDLQKVSSVMDRFEQQVQNLDVHTSVMEDSMSSATTLTTPQEQVDSLIMQIAEENGLEVLDQLSQLPEGASAVGESSVRSQEDQLSRRLAALRN
B3: CHMP4B, GLuc1 fusion (protein, UniProt Q9H444 1-224)
chain: MSVFGKLFGAGGGKAGKGGPTPQEAIQRLRDTEEMLSKKQEFLEKKIEQELTAAKKHGTKNKRAALQALKRKKRYEKQLAQIDGTLSTIEFQREALENANTNTEVLKNMGYAAKAMKAAHDNMDIDKVDELMQDIADQQELAEEISTAISKPVGFGEEFDEDELMAELEELEQEELDKNLLEISGPETVPLPNVPSIALPSKPAKKKEEEDDDMKELENWAGSM

Each binder was assayed against HCV core (J6/JFH genome), GLuc2 fusion (hepatitis C virus (J6/JFH genome)) (assay: split reporter; protein-fragment complementation assay (PCA) with split Gaussia luciferase; GLuc1-prey (ESCRT) and GLuc2-bait (HCV) plasmids cotransfected pairwise into 293T cells in 96-well plates, lysed at 24 h; normalized luminescence ratio (NLR); positive at z score >2.2 (NLR >25)).
In the case of B1, the binding is reported as “binds”.
With B2 the binding was “binds”.
With B3 the binding was “binds”.

Reference: PMC5090039
